{"source": "the supplement of paper PMC8728848", "binders": {"B1": {"name": "Ovorubin (Pomacea canaliculata), J7I2T6 (protein)", "chain": "MFVATSLLLAIATLVVRASPHNYLIMDIEPPKSVSERDILNLLSPLQVKHSFRVTGSTRLLIVIRLDAQSYEKLDEITVPGKVEVIPAVNMADTMERCGVSWPRVELTDDNVTLFESESTLTDVTKEQLKAMLIGYGEHMSGLLQAHRFEYYQAAGATPHRHFVFVNSVPDEIEVFGREGVDIWGGPGEFVVKPQYVTRI"}}, "assay_in_all_cases": "glycan array binding signal (z-score within array); higher = stronger binding", "details_in_all_cases": "glycan notation: IUPAC condensed, linker removed", "key": {"[1]": {"molecular_target": "Neu5Ac(a2-6)GlcNAc(b1-4)GlcNAc", "summary_of_the_method": "(§1)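 Glycan array data were curated from 3228 arrays in the Consortium for Functional Glycomics database and kept only where the protein sequence was available. Glycan names were converted to IUPAC-condensed notation, and columns mapping to the same glycan were averaged. The binding signal is a within-array Z-score, averaged across arrays of the same protein sequence at different concentrations or buffers and across linkers. Negative Z-scores can be read as non-binding.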"}, "[2]": {"molecular_target": "Neu5Ac(a2-6)GlcNAc(b1-4)GlcNAc(b1-4)GlcNAc", "summary_of_the_method": "as §1"}, "[3]": {"molecular_target": "Neu5Ac(a2-8)Neu5Ac", "summary_of_the_method": "as §1"}, "[4]": {"molecular_target": "Neu5Ac(a2-8)Neu5Ac(a2-3)Gal(b1-3)GalNAc(b1-4)[Neu5Ac(a2-3)]Gal(b1-4)Glc", "summary_of_the_method": "as §1"}, "[5]": {"molecular_target": "Neu5Ac(a2-8)Neu5Ac(a2-3)Gal(b1-3)GalNAc(b1-4)[Neu5Ac(a2-8)Neu5Ac(a2-3)]Gal(b1-4)Glc", "summary_of_the_method": "as §1"}, "[6]": {"molecular_target": "Neu5Ac(a2-8)Neu5Ac(a2-3)Gal(b1-4)Glc", "summary_of_the_method": "as §1"}, "[7]": {"molecular_target": "Neu5Ac(a2-8)Neu5Ac(a2-3)Gal(b1-4)GlcNAc", "summary_of_the_method": "as §1"}, "[8]": {"molecular_target": "Neu5Ac(a2-8)Neu5Ac(a2-3)[Gal(b1-3)GalNAc(b1-4)]Gal(b1-4)Glc", "summary_of_the_method": "as §1"}, "[9]": {"molecular_target": "Neu5Ac(a2-8)Neu5Ac(a2-3)[GalNAc(b1-4)]Gal(b1-4)Glc", "summary_of_the_method": "as §1"}, "[10]": {"molecular_target": "Neu5Ac(a2-8)Neu5Ac(a2-8)Neu5Ac", "summary_of_the_method": "as §1"}, "[11]": {"molecular_target": "Neu5Ac(a2-8)Neu5Ac(a2-8)Neu5Ac(a2-3)Gal(b1-4)Glc", "summary_of_the_method": "as §1"}, "[12]": {"molecular_target": "Neu5Ac(a2-8)Neu5Ac(a2-8)Neu5Ac(a2-3)[Gal(b1-3)GalNAc(b1-4)]Gal(b1-4)Glc", "summary_of_the_method": "as §1"}, "[13]": {"molecular_target": "Neu5Ac(a2-8)Neu5Ac(a2-8)Neu5Ac(a2-3)[GalNAc(b1-4)]Gal(b1-4)Glc", "summary_of_the_method": "as §1"}, "[14]": {"molecular_target": "Neu5Ac(a2-8)Neu5Ac(a2-8)Neu5Ac(a2-8)Neu5Ac(a2-3)[GalNAc(b1-4)]Gal(b1-4)Glc", "summary_of_the_method": "as §1"}, "[15]": {"molecular_target": "Neu5Ac(a2-8)Neu5Gc(a2-3)Gal(b1-4)GlcNAc", "summary_of_the_method": "as §1"}, "[16]": {"molecular_target": "Neu5Ac(b2-6)Gal(b1-4)GlcNAc", "summary_of_the_method": "as §1"}, "[17]": {"molecular_target": "Neu5Ac(b2-6)GalNAc", "summary_of_the_method": "as §1"}, "[18]": {"molecular_target": "Neu5Ac9Ac(a2-3)Gal(b1-3)GlcNAc", "summary_of_the_method": "as §1"}, "[19]": {"molecular_target": "Neu5Ac9Ac(a2-3)Gal(b1-4)GlcNAc", "summary_of_the_method": "as §1"}, "[20]": {"molecular_target": "Neu5Ac9Ac(a2-6)Gal(b1-4)GlcNAc", "summary_of_the_method": "as §1"}, "[21]": {"molecular_target": "Neu5Gc(a2-3)Gal(b1-3)GlcNAc", "summary_of_the_method": "as §1"}, "[22]": {"molecular_target": "Neu5Gc(a2-3)Gal(b1-3)[Fuc(a1-4)]GlcNAc", "summary_of_the_method": "as §1"}, "[23]": {"molecular_target": "Neu5Gc(a2-3)Gal(b1-4)Glc", "summary_of_the_method": "as §1"}, "[24]": {"molecular_target": "Neu5Gc(a2-3)Gal(b1-4)GlcNAc", "summary_of_the_method": "as §1"}, "[25]": {"molecular_target": "Neu5Gc(a2-3)Gal(b1-4)GlcNAc(b1-3)Gal(b1-4)GlcNAc(b1-2)Man(a1-3)[Neu5Gc(a2-3)Gal(b1-4)GlcNAc(b1-3)Gal(b1-4)GlcNAc(b1-2)Man(a1-6)]Man(b1-4)GlcNAc(b1-4)GlcNAc", "summary_of_the_method": "as §1"}, "[26]": {"molecular_target": "Neu5Gc(a2-3)Gal(b1-4)[Fuc(a1-3)]GlcNAc", "summary_of_the_method": "as §1"}, "[27]": {"molecular_target": "Neu5Gc(a2-6)Gal(b1-4)GlcNAc", "summary_of_the_method": "as §1"}, "[28]": {"molecular_target": "Neu5Gc(a2-6)GalNAc", "summary_of_the_method": "as §1"}, "[29]": {"molecular_target": "Neu5Gc(a2-8)Neu5Ac(a2-3)Gal(b1-4)GlcNAc", "summary_of_the_method": "as §1"}, "[30]": {"molecular_target": "Neu5Gc(a2-8)Neu5Gc(a2-3)Gal(b1-4)GlcNAc", "summary_of_the_method": "as §1"}, "[31]": {"molecular_target": "Neu5Gc(a2-8)Neu5Gc(a2-3)Gal(b1-4)GlcNAc(b1-3)Gal(b1-4)GlcNAc", "summary_of_the_method": "as §1"}, "[32]": {"molecular_target": "Neu5Gc(a2-8)Neu5Gc(a2-6)Gal(b1-4)GlcNAc", "summary_of_the_method": "as §1"}, "[33]": {"molecular_target": "Neu5Gc(b2-6)Gal(b1-4)GlcNAc", "summary_of_the_method": "as §1"}}, "note": "The list shows a part of the results."}
{"binder": "B1", "values": [{"measurement": "glycan array binding signal (z-score)", "setting": "[1]", "result": -0.636}, {"measurement": "glycan array binding signal (z-score)", "setting": "[2]", "result": -0.924}, {"measurement": "glycan array binding signal (z-score)", "setting": "[3]", "result": -0.544}, {"measurement": "glycan array binding signal (z-score)", "setting": "[4]", "result": 0.093}, {"measurement": "glycan array binding signal (z-score)", "setting": "[5]", "result": -0.465}, {"measurement": "glycan array binding signal (z-score)", "setting": "[6]", "result": 0.107}, {"measurement": "glycan array binding signal (z-score)", "setting": "[7]", "result": 0.058}, {"measurement": "glycan array binding signal (z-score)", "setting": "[8]", "result": 0.068}, {"measurement": "glycan array binding signal (z-score)", "setting": "[9]", "result": -0.457}, {"measurement": "glycan array binding signal (z-score)", "setting": "[10]", "result": 0.029}, {"measurement": "glycan array binding signal (z-score)", "setting": "[11]", "result": 0.813}, {"measurement": "glycan array binding signal (z-score)", "setting": "[12]", "result": -0.799}, {"measurement": "glycan array binding signal (z-score)", "setting": "[13]", "result": -0.746}, {"measurement": "glycan array binding signal (z-score)", "setting": "[14]", "result": -0.739}, {"measurement": "glycan array binding signal (z-score)", "setting": "[15]", "result": -0.641}, {"measurement": "glycan array binding signal (z-score)", "setting": "[16]", "result": -0.146}, {"measurement": "glycan array binding signal (z-score)", "setting": "[17]", "result": -0.939}, {"measurement": "glycan array binding signal (z-score)", "setting": "[18]", "result": -0.514}, {"measurement": "glycan array binding signal (z-score)", "setting": "[19]", "result": 0.045}, {"measurement": "glycan array binding signal (z-score)", "setting": "[20]", "result": -0.943}, {"measurement": "glycan array binding signal (z-score)", "setting": "[21]", "result": -1.27}, {"measurement": "glycan array binding signal (z-score)", "setting": "[22]", "result": -0.099}, {"measurement": "glycan array binding signal (z-score)", "setting": "[23]", "result": -0.584}, {"measurement": "glycan array binding signal (z-score)", "setting": "[24]", "result": -1.17}, {"measurement": "glycan array binding signal (z-score)", "setting": "[25]", "result": 0.987}, {"measurement": "glycan array binding signal (z-score)", "setting": "[26]", "result": 0.174}, {"measurement": "glycan array binding signal (z-score)", "setting": "[27]", "result": 0.032}, {"measurement": "glycan array binding signal (z-score)", "setting": "[28]", "result": 0.691}, {"measurement": "glycan array binding signal (z-score)", "setting": "[29]", "result": -0.622}, {"measurement": "glycan array binding signal (z-score)", "setting": "[30]", "result": -0.543}, {"measurement": "glycan array binding signal (z-score)", "setting": "[31]", "result": -0.288}, {"measurement": "glycan array binding signal (z-score)", "setting": "[32]", "result": -0.56}, {"measurement": "glycan array binding signal (z-score)", "setting": "[33]", "result": -0.319}]}
